{"source": "PubChem BioAssay AID743121 (NCATS, 2013)", "screen": "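Partners whose loss is lethal together with topoisomerase I blockade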 (primary screen)", "cells": "MDA-MB-231 cells, a human breast cancer line", "reagents": "single siRNA against human genes, 20 nM siRNA (0.8 pmol per well)", "timing": "120 h (drug added 48 h after transfection, read 72 h later)", "treatment": "camptothecin 20 nM (about EC30) for 72 h; vehicle 0.1% DMSO in parallel plates", "read-out": "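CellTiter-Glo ATP signal, scaled to control siRNA as percent viability; sensitisation given as log2 of untreated divided by camptothecin-treated viability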", "scale": "log2 vehicle/camptothecin viability: higher = stronger sensitisation to camptothecin; viability with camptothecin: higher = more viable cells", "units": "viability with camptothecin in % of control", "call rule": "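Each gene scored by redundant siRNA activity (RSA) over its individual siRNA ratios; a gene is called active at p < 0.001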", "note": "In all, the deposit lists about 26,000 reagents; shown is a part drawn at random. Of all reagents, 167 (0.63%) are marked active. 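Calls are per gene from RSA p-values that are not deposited; an individual active-marked siRNA can sensitise only weakly.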 The numbers tell different reagents against one gene apart. Further read-outs or replicates are left out here. No sequences are given here."}
{"Target gene": "SNRNP25", "reagent no.": 1, "log2 vehicle/camptothecin viability": -0.288, "viability with camptothecin": 50.1, "Call": "inactive"}
{"Target gene": "SNRNP25", "reagent no.": 2, "log2 vehicle/camptothecin viability": -0.282, "viability with camptothecin": 122, "Call": "inactive"}
{"Target gene": "SCPEP1", "reagent no.": 1, "log2 vehicle/camptothecin viability": -0.31, "viability with camptothecin": 108, "Call": "inactive"}
{"Target gene": "SCPEP1", "reagent no.": 2, "log2 vehicle/camptothecin viability": -0.0444, "viability with camptothecin": 108, "Call": "inactive"}
{"Target gene": "SCPEP1", "reagent no.": 3, "log2 vehicle/camptothecin viability": 0.254, "viability with camptothecin": 85.9, "Call": "inactive"}
{"Target gene": "SCPEP1", "reagent no.": 4, "log2 vehicle/camptothecin viability": -0.267, "viability with camptothecin": 71, "Call": "inactive"}
{"Target gene": "IMPA1", "reagent no.": 1, "log2 vehicle/camptothecin viability": -0.494, "viability with camptothecin": 71.8, "Call": "inactive"}
{"Target gene": "IMPA1", "reagent no.": 2, "log2 vehicle/camptothecin viability": -0.0681, "viability with camptothecin": 66.5, "Call": "inactive"}
{"Target gene": "IMPA1", "reagent no.": 3, "log2 vehicle/camptothecin viability": -0.0427, "viability with camptothecin": 103, "Call": "inactive"}
{"Target gene": "IMPA1", "reagent no.": 4, "log2 vehicle/camptothecin viability": 0.351, "viability with camptothecin": 50.2, "Call": "inactive"}
{"Target gene": "GUCA2B", "reagent no.": 1, "log2 vehicle/camptothecin viability": -0.155, "viability with camptothecin": 68.6, "Call": "inactive"}
{"Target gene": "GUCA2B", "reagent no.": 2, "log2 vehicle/camptothecin viability": -0.177, "viability with camptothecin": 84.6, "Call": "inactive"}
{"Target gene": "GUCA2B", "reagent no.": 3, "log2 vehicle/camptothecin viability": 0.147, "viability with camptothecin": 100, "Call": "inactive"}
{"Target gene": "GUCA2B", "reagent no.": 4, "log2 vehicle/camptothecin viability": -0.0552, "viability with camptothecin": 98.7, "Call": "inactive"}
{"Target gene": "HUS1", "reagent no.": 1, "log2 vehicle/camptothecin viability": -0.161, "viability with camptothecin": 58.5, "Call": "inactive"}
{"Target gene": "HUS1", "reagent no.": 2, "log2 vehicle/camptothecin viability": 0.143, "viability with camptothecin": 99.3, "Call": "inactive"}
{"Target gene": "HUS1", "reagent no.": 3, "log2 vehicle/camptothecin viability": -0.106, "viability with camptothecin": 86.5, "Call": "inactive"}
{"Target gene": "HUS1", "reagent no.": 4, "log2 vehicle/camptothecin viability": 0.0852, "viability with camptothecin": 104, "Call": "inactive"}
{"Target gene": "PRL", "reagent no.": 1, "log2 vehicle/camptothecin viability": -0.132, "viability with camptothecin": 132, "Call": "inactive"}
{"Target gene": "PRL", "reagent no.": 2, "log2 vehicle/camptothecin viability": -0.551, "viability with camptothecin": 71, "Call": "inactive"}
{"Target gene": "PRL", "reagent no.": 3, "log2 vehicle/camptothecin viability": 0.122, "viability with camptothecin": 90.4, "Call": "inactive"}
{"Target gene": "PRL", "reagent no.": 4, "log2 vehicle/camptothecin viability": -0.1, "viability with camptothecin": 78.2, "Call": "inactive"}
{"Target gene": "MKNK1", "reagent no.": 1, "log2 vehicle/camptothecin viability": -0.352, "viability with camptothecin": 87.4, "Call": "inactive"}
{"Target gene": "MKNK1", "reagent no.": 2, "log2 vehicle/camptothecin viability": -0.449, "viability with camptothecin": 94.6, "Call": "inactive"}
{"Target gene": "MKNK1", "reagent no.": 3, "log2 vehicle/camptothecin viability": -0.973, "viability with camptothecin": 63.8, "Call": "inactive"}
{"Target gene": "MKNK1", "reagent no.": 4, "log2 vehicle/camptothecin viability": -0.303, "viability with camptothecin": 89.6, "Call": "inactive"}

Sorted by “viability with camptothecin” (descending): some entries from above.
{"Target gene": "IMPA1", "reagent no.": 3, "log2 vehicle/camptothecin viability": -0.0427, "viability with camptothecin": 103, "Call": "inactive"}
{"Target gene": "IMPA1", "reagent no.": 1, "log2 vehicle/camptothecin viability": -0.494, "viability with camptothecin": 71.8, "Call": "inactive"}
{"Target gene": "GUCA2B", "reagent no.": 1, "log2 vehicle/camptothecin viability": -0.155, "viability with camptothecin": 68.6, "Call": "inactive"}
{"Target gene": "IMPA1", "reagent no.": 2, "log2 vehicle/camptothecin viability": -0.0681, "viability with camptothecin": 66.5, "Call": "inactive"}
{"Target gene": "IMPA1", "reagent no.": 4, "log2 vehicle/camptothecin viability": 0.351, "viability with camptothecin": 50.2, "Call": "inactive"}

Continued.
{"Target gene": "ITGB8", "reagent no.": 1, "log2 vehicle/camptothecin viability": -0.297, "viability with camptothecin": 99.3, "Call": "inactive"}
{"Target gene": "ITGB8", "reagent no.": 2, "log2 vehicle/camptothecin viability": -0.176, "viability with camptothecin": 74.5, "Call": "inactive"}
{"Target gene": "ITGB8", "reagent no.": 3, "log2 vehicle/camptothecin viability": 0.14, "viability with camptothecin": 89.8, "Call": "inactive"}
{"Target gene": "ITGB8", "reagent no.": 4, "log2 vehicle/camptothecin viability": -0.175, "viability with camptothecin": 113, "Call": "inactive"}
{"Target gene": "EPHA4", "reagent no.": 1, "log2 vehicle/camptothecin viability": -0.614, "viability with camptothecin": 68.9, "Call": "inactive"}
{"Target gene": "EPHA4", "reagent no.": 2, "log2 vehicle/camptothecin viability": 0.113, "viability with camptothecin": 85.9, "Call": "inactive"}
{"Target gene": "EPHA4", "reagent no.": 3, "log2 vehicle/camptothecin viability": -0.109, "viability with camptothecin": 105, "Call": "inactive"}
{"Target gene": "EPHA4", "reagent no.": 4, "log2 vehicle/camptothecin viability": -0.363, "viability with camptothecin": 64.5, "Call": "inactive"}
{"Target gene": "DCN", "reagent no.": 1, "log2 vehicle/camptothecin viability": -0.674, "viability with camptothecin": 44, "Call": "inactive"}
{"Target gene": "DCN", "reagent no.": 2, "log2 vehicle/camptothecin viability": 0.0253, "viability with camptothecin": 87.5, "Call": "inactive"}
{"Target gene": "DCN", "reagent no.": 3, "log2 vehicle/camptothecin viability": 0.387, "viability with camptothecin": 43, "Call": "inactive"}
{"Target gene": "DCN", "reagent no.": 4, "log2 vehicle/camptothecin viability": -0.191, "viability with camptothecin": 93.4, "Call": "inactive"}
{"Target gene": "AK1", "reagent no.": 1, "log2 vehicle/camptothecin viability": -0.0104, "viability with camptothecin": 79.1, "Call": "inactive"}
{"Target gene": "AK1", "reagent no.": 2, "log2 vehicle/camptothecin viability": -0.176, "viability with camptothecin": 92.4, "Call": "inactive"}
{"Target gene": "AK1", "reagent no.": 3, "log2 vehicle/camptothecin viability": 0.139, "viability with camptothecin": 33.9, "Call": "inactive"}
{"Target gene": "AK1", "reagent no.": 4, "log2 vehicle/camptothecin viability": -0.405, "viability with camptothecin": 52.4, "Call": "inactive"}
{"Target gene": "CA2", "reagent no.": 1, "log2 vehicle/camptothecin viability": -0.527, "viability with camptothecin": 69.6, "Call": "inactive"}
{"Target gene": "CA2", "reagent no.": 2, "log2 vehicle/camptothecin viability": -0.132, "viability with camptothecin": 108, "Call": "inactive"}
{"Target gene": "CA2", "reagent no.": 3, "log2 vehicle/camptothecin viability": -0.153, "viability with camptothecin": 101, "Call": "inactive"}
